From ChEMBL document CHEMBL3988442, “University of Dundee, Small-Polar-MMV Screening Library” (2021).

Each number is a percent effect as filed.
The record does not define 0% and 100%; most values in the screen are far below 50% and negative numbers occur (in some assays of this library far below -100).
The compounds are a random part of those screened.
Two or more numbers in one place are separate tests of the same structure; such repeats can differ widely.

A: 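Whole-cell growth test on Mycobacterium tuberculosis, read after 3 days in glucose-containing 7H9 medium; the read-out is not stated. Concentration: 50 µM. Higher reads as more growth inhibition (inferred: compounds with an IC50 in retests scored well above the rest). About 69,000 compounds were tested under these conditions; 1.1% (about 760) showed 50% or more at least once.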
B: 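Phenotypic screen: M. tuberculosis growth, cholesterol and DPPC medium, 4 days; the read-out is not stated. Concentration: 50 µM. Direction is inferred from retests: higher values go with more growth inhibition. Size under these conditions: about 69,000 compounds, about 370 of them at 50% or above in at least one test.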

{"compound": "Cc1nc[nH]c1-c1c(-c2ccccc2)ncn1C1CCNC1", "stereo": "configuration not stated", "A": -24.39, "B": -24.48}
{"compound": "CC(C)n1nc(CN2CCCC2=O)c2c1CN(C(=O)c1ccco1)C2", "A": -3.232, "B": -4.477}
{"compound": "Cc1cc(N(Cc2ccccn2)C2CC2)n2nc(C(F)(F)F)nc2n1", "A": -66.32, "B": -37.41}
{"compound": "CCOc1ccc(S(=O)(=O)C(C)C(=O)Nc2cc(C)no2)cc1", "stereo": "configuration not stated", "A": -19.36, "B": 10.32}
{"compound": "CN(C)c1cc2c(nn1)CCN(C(=O)c1cc3ccccc3[nH]c1=O)C2", "A": 1.167, "B": 77.94}
{"compound": "O=C(O)C(F)(F)F.O=C(O)C(F)(F)F.[H][C@@]12CCCO[C@]1([H])[C@H](N(C)Cc1ccco1)CN2CC1CCOCC1", "A": -28.08, "B": "-5.952 & -17.91"}
{"compound": "Cc1cc(C2CCCN(Cc3noc(Cc4ccccc4)n3)C2)n[nH]1", "stereo": "configuration not stated", "A": 5.197, "B": 1.316}
{"compound": "CC(=O)NCC(=O)N1Cc2c(-c3cccc(C)c3)nc(N)nc2C1C", "stereo": "configuration not stated", "A": "0.5611 & -7.82", "B": -26.85}
{"compound": "O=C(O)C(F)(F)F.[H][C@@]12CCN(c3ncccn3)C[C@]1([H])CN(C(=O)CC(C)C)C2", "A": -87.81, "B": -83.23}
{"compound": "CNC(=O)NCCc1csc2ccccc12", "A": 60.66, "B": 5.376}
{"compound": "CC(CC(=O)Nc1ccc(C(=O)N(C)C)c(Cl)c1)n1cccc1", "stereo": "configuration not stated", "A": -20.21, "B": -17.17}
{"compound": "[H][C@@]12CNCC[C@]1(O)CCN(c1nccc3ccccc13)C2", "A": "-36.31 & 1.948", "B": -1.783}
{"compound": "c1cnc(OCc2nnc3n2CCN(CC2CC2)C3)nc1", "A": 15.17, "B": -12.71}
{"compound": "CN(CCNC(=O)NCc1ccncc1)C1CCCC1", "A": 44, "B": -0.3245}
{"compound": "Cc1ccsc1CN1CCC(n2cc(C(O)c3ccccc3)nn2)CC1", "stereo": "configuration not stated", "A": "-0.8189 & 9.991", "B": 18.85}
{"compound": "CS(=O)(=O)NC1CCN(C(=O)NCc2cc[nH]n2)CC1", "A": -15.16, "B": -3.905}
{"compound": "CCc1nccn1CCC(=O)N1CCCC1c1cncc(NC)n1", "stereo": "configuration not stated", "A": -19.21, "B": "-7.741 & -29.62"}
{"compound": "CCc1nsc(N2CCCN(C(=O)c3ccc(CC)o3)CC2)n1", "A": "12.94 & 2.149", "B": -4.055}
{"compound": "CC(C)NC(=O)N1CCC(c2nnc3ccc(C(=O)N(C)C)cn23)C1", "stereo": "configuration not stated", "A": "-0.6958 & -20.86", "B": 1.413}
{"compound": "CN1CCC(CCc2ccnc(NC(=O)c3ccccn3)c2)CC1", "A": -28.55, "B": "0.2671 & -9.098"}
{"compound": "O=C(O)C(F)(F)F.c1cn2c(n1)CN(Cc1ccsc1)CC(Cn1cncn1)C2", "stereo": "configuration not stated", "A": 21.85, "B": -13.7}
{"compound": "Cc1ccc(NC2CCN(C(=O)CCCn3ccnc3C)CC2)nn1", "A": 8.725, "B": 14.47}
{"compound": "CNc1cc(C2CCCN(S(=O)(=O)c3cn[nH]c3)C2)ccn1", "stereo": "configuration not stated", "A": 10.34, "B": 3.084}
{"compound": "Cc1cccc(Nc2ccc(C3CCN(Cc4ncc[nH]4)CC3)nc2)n1", "A": 9.906, "B": "19.71 & 5.781"}
{"compound": "COc1ccc(CCC2CCCCN2)cc1.Cl", "stereo": "configuration not stated", "A": -23.28, "B": -3.788}

The first 3 entries again:

compound	A	B
Cc1nc[nH]c1-c1c(-c2ccccc2)ncn1C1CCNC1 (configuration not stated)	-24.39	-24.48
CC(C)n1nc(CN2CCCC2=O)c2c1CN(C(=O)c1ccco1)C2	-3.232	-4.477
Cc1cc(N(Cc2ccccn2)C2CC2)n2nc(C(F)(F)F)nc2n1	-66.32	-37.41